{
  "source": "PubChem BioAssay AID540256",
  "about": "(National Center for Advancing Translational Sciences (NCATS), 2011)",
  "note": "About 3,700 (1.2%) of roughly 300,000 compounds were called active. This list was built around the results that the source calls inconclusive (neither active nor inactive); the mix of calls is not that of the screen. Calls come from the whole dose curve; tested in HEK293 cells. Potencies of inconclusive entries are doubtful fits and often do not repeat. % is set by controls: 0 for no effect and ±100 for the full control effect; potency is the fitted concentration of half-maximal effect.",
  "data": [
    {"assay": "qHTS for Inhibitors of binding or entry into cells for Lassa Virus; note: nearly all actives have a fitted effect of over 50% in size", "details": "Lassa virus pseudotype entry inhibition, cell reporter; activity change, negative = inhibition: at 37.9 µM (top of the series) unless noted", "values": [
      {"smiles": "CCOc1ccc(-c2nnc(SCC(=O)Nc3cc(C)ccc3OC)o2)cc1", "activity change, negative = inhibition": "inactive: 15.3% [at 46.1 µM]"},
      {"smiles": "Cc1ccc(S(=O)(=O)N(C(=O)c2ccco2)c2cc3sc(=O)oc3c3ccccc23)cc1", "Potency": "inconclusive: 11.2 µM [inhibitor, partial curve]"},
      {"smiles": "O=C(Nc1n[nH]c2cc(-c3ccc(F)cc3)ccc12)C1CC1", "Potency": "inconclusive: 15.8 µM [inhibitor, partial curve, poor fit]"},
      {"smiles": "COC(=O)c1ccccc1NC(=O)c1ccc(=O)n(Cc2cccc(C)c2)c1", "Potency": "inconclusive: 11.2 µM [inhibitor, single point]"},
      {"smiles": "C=CCNC(=O)C1CCN(S(C)(=O)=O)CC1", "Potency": "inconclusive: 12.6 µM [activator, single point]"},
      {"smiles": "COc1cc(/C=N/NC(=O)CN2CCCCC2)ccc1OCc1ccccc1", "Potency": "inconclusive: 2.06 µM [activator, full curve, poor fit]"},
      {"smiles": "CC(Nc1nc(N2CCCCC2)nc2ccccc12)c1ccccc1", "note": "(stereo not drawn)", "Potency": "inconclusive: 25.9 µM [inhibitor, single point]"},
      {"smiles": "Cc1cccn2c(=O)cc(COc3cccc(NC(=O)c4cccc(Cl)c4)c3)nc12", "activity change, negative = inhibition": "inactive: -1.6% [at 46.1 µM]"},
      {"smiles": "C=C1c2ccc(C)cc2NC(=O)N1c1ccccc1", "activity change, negative = inhibition": "inactive: 8.01%"},
      {"smiles": "O=[N+]([O-])c1ccc(C2Oc3ccccc3C3CC(c4ccccc4)=NN32)s1", "note": "(stereo not drawn)", "Potency": "inconclusive: 29.1 µM [inhibitor, single point]"},
      {"smiles": "Cc1c(NC(=O)c2ccc(COc3ccc4ccccc4c3)o2)c(=O)n(-c2ccccc2)n1C", "activity change, negative = inhibition": "inactive: 9.68%"},
      {"smiles": "COc1cc(NC(=O)CN2C(=O)NC(c3ccccc3)(c3ccccc3)C2=O)cc(OC)c1", "Potency": "inconclusive: 35.5 µM [inhibitor, single point]"},
      {"smiles": "Cn1c2c(c(=O)n(C)c1=O)C(C(F)(F)F)(C(F)(F)F)N=C(CCC1CCCCC1)N2", "Potency": "active: 2.59 µM"},
      {"smiles": "CCOC(=O)C1C(=O)C=C(c2ccc(NS(C)(=O)=O)cc2)CC1c1ccco1", "note": "(stereo not drawn)", "activity change, negative = inhibition": "inactive: 1.89%"},
      {"smiles": "CCc1cc2cc(OC)ccc2nc1SCC(=O)NNC(=O)c1ccco1", "Potency": "inconclusive: 12.6 µM [inhibitor, single point]"},
      {"smiles": "CC(C)(C)c1ccc(OCCON2C(=O)CCC2=O)c(Cl)c1", "activity change, negative = inhibition": "inactive: -7.64%"},
      {"smiles": "COc1ccccc1C(=O)NCC(=O)N/N=C/c1cc(Br)ccc1OCc1ccccc1", "Potency": "inconclusive: 29.1 µM [inhibitor, single point]"},
      {"smiles": "O=C(N/N=C/c1cn(-c2ccccc2)nc1-c1cccs1)c1ccccc1F", "Potency": "inconclusive: 10 µM [inhibitor, partial curve, poor fit]"},
      {"smiles": "CC(=O)c1ccc(NC2=C(N3CCOCC3)C(=O)c3ccccc3C2=O)cc1", "Potency": "inconclusive: 29.1 µM [inhibitor, single point]"},
      {"smiles": "COc1ccccc1NC(=O)N(CCN(C)C)Cc1cc2cc(C)ccc2[nH]c1=O", "Potency": "inconclusive: 35.5 µM [inhibitor, single point]"},
      {"smiles": "CNc1oc(-c2cccs2)nc1C#N", "activity change, negative = inhibition": "inactive: 6.94%"},
      {"smiles": "Cc1cnc(C(=O)NNC(=O)c2ccc(Br)cc2)cn1", "Potency": "inconclusive: 35.5 µM [inhibitor, single point]"},
      {"smiles": "CCOc1cc(C(=O)N/N=C/C2CC=CCC2)cc(OCC)c1OCC", "note": "(stereo not drawn)", "Potency": "inconclusive: 3.55 µM [inhibitor, single point]"},
      {"smiles": "Cc1cccc(C2N=C(N)Nc3nc4ccccc4n32)c1", "note": "(stereo not drawn)", "Potency": "inconclusive: 7.94 µM [inhibitor, partial curve, poor fit]"},
      {"smiles": "O=C(OCc1c(F)cccc1Cl)c1cc([N+](=O)[O-])ccc1N1CCOCC1", "activity change, negative = inhibition": "inactive: -26.8%"},
      {"smiles": "Clc1ccc(-n2ncc3c(NCCN4CCOCC4)ncnc32)cc1", "Potency": "inconclusive: 35.5 µM [inhibitor, single point]"},
      {"smiles": "COc1ccccc1-c1nc(-c2cccc(C)c2)no1", "Potency": "inconclusive: 25.1 µM [inhibitor, single point]"},
      {"smiles": "CS(=O)(=O)c1ccc2nc(NC(=O)C3COc4ccccc4O3)sc2c1", "note": "(stereo not drawn)", "Potency": "inconclusive: 20.6 µM [activator, partial curve, poor fit]"},
      {"smiles": "C/C(=N/NC(=O)c1cccs1)c1ccco1", "Potency": "inconclusive: 4.11 µM [activator, full curve, poor fit]"},
      {"smiles": "Cc1cc(C)cc(N(C(=O)CNC(=O)c2ccco2)C(C(=O)NC2CCCC2)c2ccncc2)c1", "note": "(stereo not drawn)", "Potency": "inconclusive: 31.6 µM [inhibitor, single point]"},
      {"smiles": "O=C(CCn1cnnn1)Nc1ccc(Cl)c(Cl)c1", "Potency": "inconclusive: 35.5 µM [inhibitor, single point]"},
      {"smiles": "COc1ccc(-c2n[nH]c3c2cnc2cc(OC)c(OC)cc23)cc1", "activity change, negative = inhibition": "inactive: -2.47% [at 46.1 µM]"},
      {"smiles": "CCOC(=O)c1cccc(Nc2nc(C)cc(C)n2)c1", "Potency": "inconclusive: 0.562 µM [activator, full curve, poor fit]"},
      {"smiles": "Nc1cc(Nc2ccccc2)ccn1", "activity change, negative = inhibition": "inactive: -0.132%"},
      {"smiles": "Fc1ccc(COc2ccc(Br)cc2CNCc2ccncc2)cc1", "activity change, negative = inhibition": "inactive: -20.6%"},
      {"smiles": "O=C(NCCc1ccccc1)c1ccc2c(c1)OCCCO2", "Potency": "inconclusive: 1.12 µM [inhibitor, full curve, poor fit]"},
      {"smiles": "CN(C)CCNC(=O)c1csc(Nc2cccc3ccccc23)n1", "Potency": "inconclusive: 17.8 µM [inhibitor, single point]"},
      {"smiles": "C=C(C)CNC(=S)NNC(=O)c1cc(C)oc1C", "Potency": "inconclusive: 1.03 µM [inhibitor, partial curve, poor fit]"},
      {"smiles": "O=C(CSc1nnc(-c2ccco2)o1)c1ccccc1Cl", "Potency": "inconclusive: 31.6 µM [inhibitor, single point]"},
      {"smiles": "COc1ccccc1NC(=O)c1ccc2nsnc2c1", "activity change, negative = inhibition": "inactive: -0.383%"},
      {"smiles": "Brc1ccc(N=Cc2ccccn2)cc1", "Potency": "inconclusive: 23.1 µM [activator, single point]"},
      {"smiles": "Cc1ccc(Nc2sc(C(=O)c3ccc(F)cc3)c(N)c2S(=O)(=O)c2ccc(C)cc2)cc1", "Potency": "active: 1.12 µM"},
      {"smiles": "Cc1ccc(S(=O)(=O)NCCC(=O)OCC(=O)NCCc2ccccc2)cc1C", "activity change, negative = inhibition": "inactive: 9.76%"},
      {"smiles": "c1ccc(-c2nc(N3CCOCC3)sc2-c2ccccc2)cc1", "Potency": "inconclusive: 35.5 µM [inhibitor, single point]"},
      {"smiles": "Cc1nn(Cc2ccccc2Cl)c(C)c1C(=O)OCC(=O)NC1CCCC(C)C1C", "note": "(stereo not drawn)", "Potency": "inconclusive: 12.6 µM [inhibitor, single point]"},
      {"smiles": "Cc1cc(C)cc(C(=O)NC(=S)Nc2ccc(Cc3ccncc3)cc2)c1", "Potency": "inconclusive: 10 µM [inhibitor, partial curve]"},
      {"smiles": "COc1cc(/C=N/Nc2nn3cnnc3c3ccccc23)cc(OC)c1OC", "Potency": "inconclusive: 29.1 µM [inhibitor, single point]"},
      {"smiles": "CC(Sc1nc(=O)cc(N)n1CCc1ccccc1)C(=O)Nc1cccc(Cl)c1", "note": "(stereo not drawn)", "activity change, negative = inhibition": "inactive: 0.444% [at 46.1 µM]"},
      {"smiles": "CCc1ccc(C(=O)COC(=O)C(CCSC)NC(=O)C23CC4CC(CC(C4)C2)C3)cc1", "note": "(stereo not drawn)", "activity change, negative = inhibition": "inactive: -0.625%"},
      {"smiles": "CCCS(=O)(=O)Nc1cc(-c2cn3ccc(C)cc3n2)ccc1C", "Potency": "inconclusive: 1.78 µM [activator, single point]"},
      {"smiles": "CC(C)NC(=O)NC(=O)CSc1nnc(-c2c[nH]c3ccccc23)o1", "Potency": "inconclusive: 35.5 µM [inhibitor, single point]"},
      {"smiles": "Cc1ccc(-n2ncc(C(=O)NC3CCN(Cc4ccccc4)CC3)c2C2CCN(C(=O)OC(C)(C)C)CC2)cc1C", "Potency": "inconclusive: 35.5 µM [inhibitor, single point]"},
      {"smiles": "Cc1nn(-c2cccc(Cl)c2)c2nc(-c3ccncc3)cc(C(=O)N3CCOCC3)c12", "Potency": "inconclusive: 35.5 µM [inhibitor, single point]"},
      {"smiles": "CC(C)Oc1ccc(Nc2ncnc3ccccc23)cc1", "Potency": "inconclusive: 35.5 µM [inhibitor, single point]"},
      {"smiles": "COc1ccc(CCCc2nnc(SCC(=O)Nc3ccc(C)cc3)o2)cc1C", "activity change, negative = inhibition": "inactive: 14.4% [at 46.1 µM]"},
      {"smiles": "CCCCCCC(=O)c1c(O)n(-c2ccccc2OC)c(=O)[nH]c1=O", "note": "(tested in a mixture with another compound)", "Potency": "inconclusive: 6.31 µM [inhibitor, single point]"},
      {"smiles": "Cc1ccc(OC(=O)C2CSC3(C)CCC(=O)N23)c(Br)c1", "note": "(stereo not drawn)", "activity change, negative = inhibition": "inactive: -23.3%"},
      {"smiles": "Cn1c(=O)[nH]c2nncnc2c1=O", "Potency": "inconclusive: 28.2 µM [inhibitor, single point]"},
      {"smiles": "O=C(/C=C/c1ccc([N+](=O)[O-])o1)NNC(=O)c1ccc(F)cc1", "Potency": "inconclusive: 1.78 µM [inhibitor, full curve, poor fit]"},
      {"smiles": "CN(C)S(=O)(=O)N(CC(=O)N1CCC(Cc2ccccc2)CC1)c1ccccc1", "Potency": "inconclusive: 3.16 µM [inhibitor, partial curve, poor fit]"},
      {"smiles": "O=C(OCC(F)(F)F)c1cccc(COc2ccc3ccccc3c2)c1", "Potency": "inconclusive: 1.41 µM [inhibitor, full curve, poor fit]"},
      {"smiles": "CCOc1ccc(NC(=O)CN2CCN(CC(=O)Nc3ccc(F)cc3F)CC2)cc1", "Potency": "inconclusive: 35.5 µM [activator, single point]"},
      {"smiles": "O=Cc1cc2ccccc2nc1SCc1ccc(Cl)c(Cl)c1", "Potency": "inconclusive: 1 µM [inhibitor, partial curve, poor fit]"},
      {"smiles": "Cc1cc(C)cc(N(CC(=O)NCCSCc2ccccc2)S(C)(=O)=O)c1", "Potency": "inconclusive: 31.6 µM [inhibitor, partial curve, poor fit]"},
      {"smiles": "CCOC(=O)C1(Cc2ccc(OC)cc2)CCN(S(C)(=O)=O)CC1", "activity change, negative = inhibition": "inactive: 15.4% [at 46.1 µM]"},
      {"smiles": "Cc1ccccc1-c1noc(-c2nnn(-c3ccccc3C)c2N)n1", "Potency": "inconclusive: 35.5 µM [activator, partial curve, poor fit]"},
      {"smiles": "Cc1ccc(-n2cc(C(=O)OCc3ccc(F)c(F)c3)c3ccccc3c2=O)cc1", "activity change, negative = inhibition": "inactive: 22.8% [at 46.1 µM]"},
      {"smiles": "CCC1CN2CCc3cc(OC)c(OC)cc3C2CC1CC1c2cc(OC)c(OC)cc2CCN1C(=O)C(Cc1c[nH]c2ccccc12)NC(=O)OC(C)(C)C", "note": "(stereo not drawn)", "Potency": "inconclusive: 12.6 µM [inhibitor, partial curve, poor fit]"}
    ]}
  ]
}
